Experimental data from article PMC6748027.
These are yes or no findings as the source states them, for the method shown. A result given as binding can be weak or reduced; the word gives no strength. Sequences can lack the tags named with a protein. For some assays here: In cells and extracts the contact can be indirect.

Protein sequences, listed by entry. Tags and fused reporters are not part of them. Lines headed by an entry give the natural chain unless they say otherwise; changes in a name come on top.
UniProt Q56XY2: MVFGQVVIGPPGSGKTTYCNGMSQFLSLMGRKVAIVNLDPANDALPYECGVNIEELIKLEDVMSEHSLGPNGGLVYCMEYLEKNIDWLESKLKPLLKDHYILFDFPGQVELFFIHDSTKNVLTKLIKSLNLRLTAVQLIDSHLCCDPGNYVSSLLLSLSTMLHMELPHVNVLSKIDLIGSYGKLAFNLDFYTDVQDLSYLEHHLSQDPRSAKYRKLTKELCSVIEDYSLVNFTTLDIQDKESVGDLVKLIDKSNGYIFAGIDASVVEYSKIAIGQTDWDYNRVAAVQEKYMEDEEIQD
UniProt Q8W586: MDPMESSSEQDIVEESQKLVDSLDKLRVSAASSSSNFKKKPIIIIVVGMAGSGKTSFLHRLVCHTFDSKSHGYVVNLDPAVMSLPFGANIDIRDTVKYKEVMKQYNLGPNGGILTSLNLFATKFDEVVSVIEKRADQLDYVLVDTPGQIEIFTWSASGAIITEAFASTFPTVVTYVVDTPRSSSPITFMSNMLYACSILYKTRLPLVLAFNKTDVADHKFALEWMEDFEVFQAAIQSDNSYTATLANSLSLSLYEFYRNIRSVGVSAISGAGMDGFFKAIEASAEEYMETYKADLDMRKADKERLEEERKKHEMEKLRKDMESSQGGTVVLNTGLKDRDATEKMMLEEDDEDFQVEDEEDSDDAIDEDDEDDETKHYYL

Tests used:
[1] = target: T1, nYFP-IYO (Arabidopsis MINIYO fused to the N-terminal half of YFP) (Arabidopsis thaliana) (UniProt Q8GYU3); assay: split reporter; BiFC: nYFP and cYFP fusions co-expressed transiently in N. benthamiana leaves; confocal microscopy two days after infiltration
T1 sequence: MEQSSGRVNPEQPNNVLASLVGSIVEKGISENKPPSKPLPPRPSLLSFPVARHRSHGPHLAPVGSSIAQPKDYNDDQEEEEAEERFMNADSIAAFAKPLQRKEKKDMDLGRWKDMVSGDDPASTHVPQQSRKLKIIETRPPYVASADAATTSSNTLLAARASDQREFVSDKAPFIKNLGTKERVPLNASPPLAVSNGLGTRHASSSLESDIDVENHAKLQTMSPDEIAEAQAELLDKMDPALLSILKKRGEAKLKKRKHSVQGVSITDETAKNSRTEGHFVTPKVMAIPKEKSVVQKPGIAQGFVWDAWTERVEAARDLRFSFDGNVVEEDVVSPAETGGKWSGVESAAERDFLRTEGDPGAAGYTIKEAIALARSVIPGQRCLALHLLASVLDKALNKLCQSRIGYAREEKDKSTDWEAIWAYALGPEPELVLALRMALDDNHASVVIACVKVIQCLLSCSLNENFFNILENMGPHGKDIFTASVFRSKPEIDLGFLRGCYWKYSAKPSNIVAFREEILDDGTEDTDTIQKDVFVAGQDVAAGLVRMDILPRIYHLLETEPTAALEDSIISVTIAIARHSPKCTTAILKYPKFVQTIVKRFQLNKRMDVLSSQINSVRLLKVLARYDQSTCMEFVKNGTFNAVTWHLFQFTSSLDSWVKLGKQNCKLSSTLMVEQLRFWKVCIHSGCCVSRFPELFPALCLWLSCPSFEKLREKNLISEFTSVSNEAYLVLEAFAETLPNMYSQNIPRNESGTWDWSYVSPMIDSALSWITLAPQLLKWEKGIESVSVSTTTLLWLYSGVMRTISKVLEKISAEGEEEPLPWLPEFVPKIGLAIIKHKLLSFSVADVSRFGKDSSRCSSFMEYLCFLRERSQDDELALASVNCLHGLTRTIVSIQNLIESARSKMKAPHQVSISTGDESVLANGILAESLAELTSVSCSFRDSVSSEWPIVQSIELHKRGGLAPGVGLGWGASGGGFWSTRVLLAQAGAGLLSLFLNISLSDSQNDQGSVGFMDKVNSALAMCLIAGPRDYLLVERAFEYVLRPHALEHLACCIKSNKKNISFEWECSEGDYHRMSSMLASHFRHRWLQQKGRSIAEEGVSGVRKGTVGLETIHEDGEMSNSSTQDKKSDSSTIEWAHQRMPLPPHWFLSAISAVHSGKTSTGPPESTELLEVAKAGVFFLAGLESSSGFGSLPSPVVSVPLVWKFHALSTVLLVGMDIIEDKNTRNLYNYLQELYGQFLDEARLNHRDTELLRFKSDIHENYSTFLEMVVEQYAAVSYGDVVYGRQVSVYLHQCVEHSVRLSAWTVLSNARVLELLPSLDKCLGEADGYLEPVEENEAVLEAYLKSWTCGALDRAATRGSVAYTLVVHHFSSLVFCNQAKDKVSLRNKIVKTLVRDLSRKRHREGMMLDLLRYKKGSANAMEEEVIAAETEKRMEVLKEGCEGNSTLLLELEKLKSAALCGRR

[2] = target: T2, nYFP-IYO_(ATG500) (Arabidopsis thaliana) (UniProt Q8GYU3); assay: as above
T2 sequence: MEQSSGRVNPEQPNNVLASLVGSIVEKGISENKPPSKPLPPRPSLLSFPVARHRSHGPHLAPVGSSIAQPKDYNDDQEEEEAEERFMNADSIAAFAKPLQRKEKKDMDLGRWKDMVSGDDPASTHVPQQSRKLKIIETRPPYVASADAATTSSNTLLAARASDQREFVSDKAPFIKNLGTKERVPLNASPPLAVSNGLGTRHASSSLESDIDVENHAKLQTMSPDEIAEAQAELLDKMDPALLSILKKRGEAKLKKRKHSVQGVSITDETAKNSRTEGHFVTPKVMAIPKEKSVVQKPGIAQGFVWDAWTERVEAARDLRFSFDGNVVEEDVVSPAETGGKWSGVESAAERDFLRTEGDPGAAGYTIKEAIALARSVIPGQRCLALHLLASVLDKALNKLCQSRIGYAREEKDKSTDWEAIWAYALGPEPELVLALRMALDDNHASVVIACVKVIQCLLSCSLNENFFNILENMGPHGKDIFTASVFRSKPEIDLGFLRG

[3] = target: T3, nYFP-IYO_(ΔNLSAB) (Arabidopsis thaliana) (UniProt Q8GYU3); assay: as above
T3 sequence: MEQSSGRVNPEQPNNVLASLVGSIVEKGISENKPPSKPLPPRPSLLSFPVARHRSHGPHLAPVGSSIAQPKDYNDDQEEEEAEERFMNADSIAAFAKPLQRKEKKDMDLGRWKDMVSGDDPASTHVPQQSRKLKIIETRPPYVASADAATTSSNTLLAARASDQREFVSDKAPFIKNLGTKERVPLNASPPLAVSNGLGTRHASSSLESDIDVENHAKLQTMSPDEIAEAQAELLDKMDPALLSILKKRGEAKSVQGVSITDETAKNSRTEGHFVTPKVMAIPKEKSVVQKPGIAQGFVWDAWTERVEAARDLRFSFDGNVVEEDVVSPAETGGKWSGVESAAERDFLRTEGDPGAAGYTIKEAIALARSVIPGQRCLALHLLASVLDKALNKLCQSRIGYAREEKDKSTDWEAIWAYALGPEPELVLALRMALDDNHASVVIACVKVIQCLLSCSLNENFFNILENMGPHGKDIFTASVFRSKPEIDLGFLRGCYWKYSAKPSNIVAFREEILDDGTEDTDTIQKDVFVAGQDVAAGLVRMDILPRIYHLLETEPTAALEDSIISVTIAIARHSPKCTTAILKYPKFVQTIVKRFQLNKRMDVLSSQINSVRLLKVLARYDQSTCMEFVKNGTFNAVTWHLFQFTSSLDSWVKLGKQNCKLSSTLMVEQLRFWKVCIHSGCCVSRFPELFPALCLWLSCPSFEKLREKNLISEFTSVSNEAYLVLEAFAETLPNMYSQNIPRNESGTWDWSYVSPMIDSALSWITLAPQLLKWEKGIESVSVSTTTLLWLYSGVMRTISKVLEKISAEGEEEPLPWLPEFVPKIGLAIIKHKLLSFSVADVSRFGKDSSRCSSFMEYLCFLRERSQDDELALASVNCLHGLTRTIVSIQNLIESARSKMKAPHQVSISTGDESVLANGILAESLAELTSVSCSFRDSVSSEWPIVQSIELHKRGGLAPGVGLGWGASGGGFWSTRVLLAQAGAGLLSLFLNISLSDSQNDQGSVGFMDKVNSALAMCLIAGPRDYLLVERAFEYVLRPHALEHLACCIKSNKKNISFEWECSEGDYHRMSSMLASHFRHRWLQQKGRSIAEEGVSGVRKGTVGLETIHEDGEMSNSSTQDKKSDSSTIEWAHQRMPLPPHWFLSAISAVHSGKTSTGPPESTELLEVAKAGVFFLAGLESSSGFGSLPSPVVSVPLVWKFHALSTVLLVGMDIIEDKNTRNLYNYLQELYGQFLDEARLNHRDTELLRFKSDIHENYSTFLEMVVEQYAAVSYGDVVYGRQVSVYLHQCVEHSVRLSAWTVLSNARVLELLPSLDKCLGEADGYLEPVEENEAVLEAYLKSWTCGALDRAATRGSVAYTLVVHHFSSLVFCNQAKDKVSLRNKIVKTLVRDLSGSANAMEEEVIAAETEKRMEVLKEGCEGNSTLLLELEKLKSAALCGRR

[4] = target: T4, BD-IYO (Arabidopsis thaliana) (UniProt Q8GYU3); assay: two-hybrid; reverse orientation: AD-GPN1 fusions (called preys) and BD-IYO (called bait) in yeast; growth on -LWAH
T4 sequence: T1 sequence

[5] = target: T5, AD-IYO (Arabidopsis thaliana) (UniProt Q8GYU3); assay: two-hybrid; BD-GPN fusions (called preys) and AD-IYO fusions (called baits) co-transformed into S. cerevisiae AH109; growth on media lacking Ade, His, Leu and Trp (-LWAH)
T5 sequence: T1 sequence

[6] = target: T6, AD-IYO_(ATG209) (Arabidopsis thaliana) (UniProt Q8GYU3); assay: as above
T6 sequence: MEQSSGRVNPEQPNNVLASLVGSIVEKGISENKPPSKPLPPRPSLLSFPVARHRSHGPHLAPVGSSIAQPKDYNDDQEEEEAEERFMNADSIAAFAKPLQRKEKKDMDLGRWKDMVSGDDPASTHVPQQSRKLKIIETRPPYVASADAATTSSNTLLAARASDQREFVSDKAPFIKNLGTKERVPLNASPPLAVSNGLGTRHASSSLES

[7] = target: T7, AD-IYO_(NLSAB) (Arabidopsis thaliana) (UniProt Q8GYU3); assay: as above
T7 sequence: T3 sequence

cYFP-GPN2 (from UniProt Q56XY2) was tested. Which binding [1] did it give?
Its binding is “binds”.

How did the binding [1] turn out when cYFP-GPN1 (from UniProt Q8W586) was run?
Its binding is “binds”.

What about the binding [2] of the same substance?
Its binding is “binds”.

And the binding [3]?
Its binding is “binds”.

For AD-GPN1 (from UniProt Q8W586), which binding [4] is on record?
Its binding is “binds”.

With AD-GPN1_(mGPN) (from UniProt Q8W586) as the substance, how does the binding [4] read?
Its binding is “binds”.

BD-GPN3 (Arabidopsis thaliana) was tested. Which binding [5] did it give?
Its binding is “no binding”.

Which binding [1] does the source give for cYFP-GPN3 (Arabidopsis thaliana) here?
Its binding is “no binding”.

Which binding [5] does the source give for BD-GPN1 (from UniProt Q8W586) here?
The binding was “binds”.

And the binding [6]?
Its binding is “binds”.

And the binding [7]?
The binding was “binds”.
